# Laboratory results reported in PubChem BioAssay AID504444 (National Center for Advancing Translational Sciences (NCATS), 2011).
# About 7,500 (2.1%) of roughly 360,000 compounds were called active. This list was built around the results that the source calls inconclusive (neither active nor inactive); the mix of calls is not that of the screen. Calls follow the shape of the dose curve; as a rule, active = well fitted inhibition curve with a large enough effect; inconclusive = small, poorly fitted or top-dose-only effect, or effect the other way; inactive = flat fitted curve, though single readings scatter. A potency beside an inconclusive call is a rough fit, not a confirmed value.
# Assay: Nrf2 qHTS screen for inhibitors; also: nearly all actives have a fitted effect of over 60% in size
# Details: A549 ARE-Fluc reporter, luciferase luminescence, 18-24 h; activity change, negative = inhibition: at 46 µM (top of the series)
# Outline: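 In this cell-based qHTS, ARE-driven firefly luciferase in A549 cells reports Nrf2 activity; the luminescent signal after BugLite lysis is the measured value, with a prior CellTiter-Fluor read for cell health.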
# % is scaled to controls: 0 for no effect and ±100 for the full control effect; potency is read from the fitted curve at half-maximal effect.
Structure (SMILES),Potency,"activity change, negative = inhibition"
CC(=O)c1cn(Cc2ccccc2F)c2ccccc12,active: 5.8 µM,
COC(=O)[C@@H](c1ccccc1)C1CCCCN1 (stereo partly drawn),,inactive: 10.9%
CCN(CC)c1ccc2c(cc1=O)[C@@H](NC)CCc1cc(OC)c(OC)c(OC)c1-2,"inconclusive: 8.2 µM [activator, partial curve]",
N#Cc1ccc(Cn2cc(C=O)c3ccccc32)cc1,"inconclusive: 0.326 µM [falling, full curve, poor fit]",
C[C@H]1C=CC(=O)O[C@H]1c1ccccc1,"inconclusive: 29.1 µM [falling, single point]",
Cc1ccc2c(Cl)cc(Cl)c(OCC(=O)N(C(C)C)C(C)C)c2n1,"inconclusive: 11.6 µM [falling, partial curve, poor fit]",
CCOC(=O)C(NS(=O)(=O)c1ccc(C)cc1)(C(F)(F)F)P(=O)(OCC(C)C)OCC(C)C (stereo not drawn),"inconclusive: 25.9 µM [falling, partial curve, poor fit]",
Cn1c(=O)oc2cc(S(=O)(=O)CCC(=O)N3CCN(c4ccccc4)CC3)ccc21,"inconclusive: 32.6 µM [activator, single point]",
FC(F)(F)c1ccccc1N1CC1c1ccncc1 (stereo not drawn),,inactive: -3.49%
O=C(c1cccc(C(F)(F)F)c1)C1CCCN(Cc2ccccc2O)C1 (stereo not drawn),,inactive: -3.59%
Cc1ccc(N)c(C(=O)c2ccc(Br)cc2)c1,"inconclusive: 1.64 µM [activator, partial curve]",
COc1ccc(CC2C(=O)NC(C)C(=O)N(C)C3C(=O)N(C)C(Cc4ccc(O)c(c4)Oc4ccc(cc4)C3O)C(=O)NC(C)C(=O)NC(C)C(=O)N2C)cc1 (stereo not drawn),active: 1.3 µM,
CCc1ccc(CNC(=O)c2ccc3c(c2)N=C(C)c2cc(C)ccc2S3)cc1,"inconclusive: 18.4 µM [falling, single point]",
Cn1c(O)c(/C=N/N2CCOCC2)c(=O)n(C)c1=S,"inconclusive: 1.3 µM [falling, partial curve, poor fit]",
N=Cc1c(O)n(-c2ccc(C34CC5CC(CC(C5)C3)C4)cc2)c(=O)[nH]c1=O,"inconclusive: 29.1 µM [activator, single point]",
COc1ccc(N2C(=O)/C(=C/C=C/c3ccccc3[N+](=O)[O-])C(=O)NC2=S)cc1,,inactive: 0.354%
COCCCn1c(N)c(C(=O)NCCC(C)C)c2nc3ccccc3nc21,active: 16.4 µM,
COc1ccc(C2=NCC(=O)N(CC(=O)NCc3ccco3)c3sc4c(c32)CCCC4)cc1OC,"inconclusive: 29.1 µM [falling, single point]",
Cc1cccc(C)c1OCC(=O)Nc1ccc(Cl)cc1C(=O)c1ccccc1,"inconclusive: 6.51 µM [falling, single point]",
COc1ccc(NC2Oc3cc4c(cc3C(c3cc(OC)c(OC)c(OC)c3)C2C)OCO4)cc1 (stereo not drawn),"inconclusive: 32.6 µM [falling, single point]",
CCCCn1c(O)c(C(CC)=NCc2cc(OC)cc(OC)c2)c(=O)[nH]c1=O,"inconclusive: 23.1 µM [falling, single point]",

Structure (SMILES),Potency,"activity change, negative = inhibition"
Cc1ccc(-c2nc3ncccc3o2)cc1NC(=O)c1cccc(OCC(C)C)c1,"inconclusive: 1.64 µM [falling, full curve, poor fit]",
CC[C@@H](C(=O)[C@@H](C)[C@@H](O)[C@H](C)[C@@H]1O[C@@H]([C@@H](CC)C(=O)O)CC[C@@H]1C)[C@H]1O[C@]2(C=C[C@@H](O)[C@]3(CC[C@@](C)([C@H]4CC[C@](O)(CC)[C@H](C)O4)O3)O2)[C@H](C)C[C@@H]1C,active: 1.46 µM,
O=C(NCCSc1c(-c2ccc(F)cc2)[nH]c2ccccc12)c1ccc(S(=O)(=O)N2CCOCC2)cc1,"inconclusive: 3.66 µM [falling, single point]",
C=CCSc1nc2c(c(-c3ccsc3)c1C#N)CN(C)CC2,,inactive: -2.53%
Cc1ccc(NC(=O)COc2ccc(-n3ccnc3)cc2)cc1Cl,"inconclusive: 29.1 µM [falling, single point]",
CN(C)S(=O)(=O)c1ccc(C(=O)NNc2nc(-c3ccccc3)c3cc(Br)ccc3n2)cc1,active: 13 µM,
CCOc1ccc(NC(=O)CN(c2ccc(Cl)cc2C)S(=O)(=O)c2ccccc2)cc1,"inconclusive: 29.1 µM [falling, single point]",
O=C(O)COc1ccc(Cl)cc1Cl,,inactive: 11.2%
O=C(Cc1c[nH]c2ccccc12)NNCc1ccc(N(CCCl)CCCl)cc1,"inconclusive: 3.66 µM [falling, full curve]",
C[C@]12C[C@@H](O)[C@H](O)CC1=CCC1C2CC[C@@]2(C)C1CC[C@@H]2O (stereo partly drawn),"inconclusive: 29.1 µM [falling, single point]",
CCCCn1c(-c2nonc2NC(=O)c2ccccc2Cl)nc2ccccc21,"inconclusive: 1.64 µM [activator, full curve]",
CC(=NCc1ccco1)c1c(O)n(-c2ccc(C)cc2)c(=O)[nH]c1=O,"inconclusive: 0.058 µM [falling, full curve, poor fit]",
O=C(N/N=C/c1ccccc1OC(=O)N1CCOCC1)c1cccs1,"inconclusive: 20.6 µM [activator, partial curve, poor fit]",
COc1ccccc1-n1c(-c2ccccc2Cl)nc2ccccc2c1=O,"inconclusive: 18.4 µM [falling, partial curve, poor fit]",
Cn1c(O)c(C(=Nc2ccc(F)cc2)c2ccccc2Cl)c(=O)n(C)c1=O,"inconclusive: 18.4 µM [falling, single point]",
Cc1ccc(CNCc2c(C(=O)O)n(Cc3ccccc3C)c3cc(C)ccc23)cc1,"inconclusive: 9.2 µM [activator, partial curve, poor fit]",
CC(O)(CS(=O)(=O)c1ccccc1)C(=O)Nc1cccc(C(F)(F)F)c1 (stereo not drawn),,inactive: 8.93%
O=C(COC(=O)c1ccc(O)cc1)Nc1ccc(Cl)cc1C(=O)c1ccccc1,"inconclusive: 29.1 µM [activator, single point]",
CC1CCCC(C2(O)C(=O)Nc3ccccc32)C1=O (stereo not drawn),"inconclusive: 4.11 µM [activator, partial curve, poor fit]",
COc1ccc(NP(=O)(Oc2ccc(Cl)cc2)Oc2ccc(Cl)cc2)cc1OC,"inconclusive: 13 µM [falling, partial curve]",
NC(=O)c1cc(N2CC2)c([N+](=O)[O-])cc1[N+](=O)[O-],active: 13 µM,

Structure (SMILES),Potency,"activity change, negative = inhibition"
CN(CC=CCN(C)P(=S)(N1CC1)N1CC1)P(=S)(N1CC1)N1CC1,"inconclusive: 20.6 µM [falling, partial curve, poor fit]",
C(#CCN1CCCCC1)COCc1ccccc1,"inconclusive: 25.9 µM [activator, single point]",
Cc1cc(N(CCCl)CCCl)ccc1/C=N/NC(=O)c1ccco1,"inconclusive: 29.1 µM [activator, single point]",
COC(=O)C1=C(c2ccc(F)cc2OCc2ccccc2)C[C@@H]2CC[C@H]1N2C(=O)N1CCCCC1,"inconclusive: 18.4 µM [falling, single point]",
COc1ccc(C2C(C(=O)N3CCC4(CC3)OCCO4)CC(=O)N2c2ccc(OC)cc2)cc1 (stereo not drawn),"inconclusive: 0.0046 µM [activator, full curve, poor fit]",
CCCCn1c(O)c(C(CC)=NCc2ccc(F)cc2)c(=O)[nH]c1=O,"inconclusive: 25.9 µM [falling, single point]",
Nc1c(C(=O)NCc2ccco2)c2nc3ccccc3nc2n1CCN1CCCCC1,"inconclusive: 32.6 µM [falling, single point]",
Cc1cccc(N2C(=O)NC(=O)/C(=C\c3ccc(N4CCOCC4)cc3)C2=O)c1,"inconclusive: 7.31 µM [activator, partial curve, poor fit]",
CC[C@H]1C2C[C@H]3[C@@H]4N(C)c5ccccc5C45C[C@H](C2[C@H]5O)N3[C@@H]1O (stereo partly drawn),"inconclusive: 29.1 µM [activator, partial curve, poor fit]",
CC(CNC(=O)CCS(=O)(=O)c1ccc2c(c1)oc(=O)n2C)c1ccccc1 (stereo not drawn),"inconclusive: 29.1 µM [activator, single point]",
O=C(N/N=C/c1cc(Br)c(Br)s1)c1ccncc1,active: 18.4 µM,
COc1cccc(N2C(=O)NC(=O)/C(=C/c3ccc4c(c3)Cc3ccccc3-4)C2=O)c1,,inactive: 5.06%
CC(Cc1ccccc1)NC(=O)Cc1ccc([N+](=O)[O-])cc1 (stereo not drawn),"inconclusive: 1.3 µM [falling, full curve, poor fit]",
COc1cc2c(cc1OC)-c1c3c(cc4c1[C@@H](C2)N(C)CC4)OCO3,"inconclusive: 16.4 µM [falling, single point]",
COc1ccc(CN2C(=O)NC(=O)/C(=C\c3cc(OC)c(OC)c(OC)c3)C2=O)cc1,,inactive: 1.86%
CCOc1ccccc1Oc1coc2cc(OC(=O)c3ccco3)ccc2c1=O,"inconclusive: 7.31 µM [falling, single point]",
Fc1ccccc1CSc1ncnc2c1ncn2C1CCCO1 (stereo not drawn),"inconclusive: 11.6 µM [activator, partial curve]",
CN1/C(=C\C=C2C(=O)NC(=O)NC2=O)C(C)(C)c2ccccc21,,inactive: 3.39%
CCOc1ccc(Nc2c(S(=O)(=O)c3ccc(C)cc3)cnc3ccccc23)cc1,active: 23.1 µM,
C[C@H]1[C@@H](OS(=O)(=O)O)C[C@@H]2C[C@H]([C@@H](O)c3cc(=O)[nH]c(=O)[nH]3)NC3=NC[C@H]1N32,active: 0.651 µM,
Cc1oc(-c2ccccc2F)nc1CS(=O)(=O)CC(=O)N1CCN(c2cccc(C(F)(F)F)c2)CC1,"inconclusive: 16.4 µM [falling, single point]",

# Another view of part of the listing above.
Structure (SMILES) | Potency | activity change, negative = inhibition
COC(=O)C1=C(c2ccc(F)cc2OCc2ccccc2)C[C@@H]2CC[C@H]1N2C(=O)N1CCCCC1 | inconclusive: 18.4 µM [falling, single point] | 
Cc1cccc(N2C(=O)NC(=O)/C(=C\c3ccc(N4CCOCC4)cc3)C2=O)c1 | inconclusive: 7.31 µM [activator, partial curve, poor fit] | 
CC(Cc1ccccc1)NC(=O)Cc1ccc([N+](=O)[O-])cc1 (stereo not drawn) | inconclusive: 1.3 µM [falling, full curve, poor fit] | 
CCOc1ccccc1Oc1coc2cc(OC(=O)c3ccco3)ccc2c1=O | inconclusive: 7.31 µM [falling, single point] | 
